The campaign covered roughly 52,000 sequences. About 210 (0.4%) were called active.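 How the source made its calls: active means gene whose silencing raises cell survival under the drug, median off-target-corrected z-score across its silencing RNAs 2 or more; inactive means the rest.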 This is one part of the list.

The nature of the assay: Resistance to Poly (ADP-Ribose) Polymerase inhibitor: Gene Identification via Genome-wide siRNA Screen. Conditions: mouse BRCA2 R2336H ES cells, olaparib, CellTiter-Glo viability; hits give high values. A digest of the protocol: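 Mouse BRCA2 R2336H ES cells were reverse-transfected with siRNA (20 nM final), treated at 48 h with 500 nM olaparib, and read by CellTiter-Glo after 72 h. Scores: MAD-based z per siRNA, median per gene, seed off-target correction.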
Background: In ATP-based viability assays light output follows the ATP content of the culture.
As to “GGGUGAAAAGCAUUUCUGUTT against MGI:1923902”, the z-score was inactive: 1.38. Consider CCUUUGUGAUGGAUGUUUATT against Dexi, for which the z-score is inactive: -0.0408. As for GGCUCAUGUGGUAUAGAAATT against Il1rapl2, the z-score is inactive: -0.698. Next, GGUAGAAAAGAAAAAGACCTT against Stc1: inactive: -0.161; CCUAUCAAGGCCAAUUCACTT against Jph2: inactive: 0.629. With GGAUCUUGGAGAGAUUCAUTT against Muted the figure was inactive: 1.08; with GGACUCCUCAUGCUGAAGATT against Cdh13, inactive: 0.502. Take GCCCUACAAAAAAGUUAUUTT against Bnip2: the z-score was inactive: 0.461.

With GGAAUAAUCAAGCUAGGGATT against Satb2, the z-score is inactive: 0.181.

Regarding “GGUGGAAUUUCAGCUCUACTT against 4930572I07Rik”, the z-score was inactive: -0.647. With GCAUGUCCGUUUAUGUCACTT against Trp53inp2 the figure was inactive: 0.265; with GCUAUGGUAGCUGAUAACATT against AA536743, inactive: -0.615. Next, GGAUCUGCUCUCUUAGAAGTT against Gzmn: inactive: -1.5; GGUACACUACAUGACUCAUTT against Sall4: inactive: 0.95; CGGUGCAGAUGUCGACGAUTT against Sssca1: inactive: 0.479. As for GGCAGGAUCCUUUUCUCUATT against Als2, the z-score was inactive: -1.15. For GGAACCUAUGGAAGGCGUATT against Hmga1l4, the z-score is inactive: 1.05. With GGAGAUGGCAAUUCCGGUUTT against Pycs the figure was inactive: -1.93; with CCUGGAGGAGUAUUUACACTT against H2-Ob, inactive: -0.77; with GCCCGAUGUCAUGUGGACATT against Eya2, inactive: -0.588. Next, GGUGGUCCUGGAUCUUUAUTT against Spon2: inactive: -1.87; CCUUUACGUUUCUGUGUCUTT against Slc37a4: inactive: -0.238.

Consider GGAGUUUACAUGAGUACUATT against Slco1a6, for which the z-score was inactive: -0.504. With GGCCCAAGAGAACAUCAAATT against Speer2 the figure was inactive: 0.716. With GGAAAAAAUCACUUUCAUCTT against Sfrs16 the figure was inactive: -0.125; with GCUUCCAAUUACUUAUCCATT against Phc3, inactive: 0.881; with GGCCAUUUGUCACAUAUGUTT against Tyk2, inactive: 0.405.

As to GCUUCGUGGGUGAAGGAUATT against Ofcc1, the z-score was inactive: -1.8. Next, “GGUAACUGGUGUCAUUUAATT against 4933409D10Rik”: inactive: 0.948.

Take “GGUCCCUUUAUCUUUCUUUTT against D17H6S56E-3”: the z-score is inactive: 0.456. With “GGGCAUCAUUAAAAGGAAATT against 0610009J22Rik” the figure was inactive: 0.341.

In the case of “CCCGCUUGUUCUGAUGAUATT against 2310039H08Rik”, the z-score was inactive: 0.63. With GGACACAGACAAUGAAAUGTT against Fetub the figure was inactive: 1.23. Next, CCUUCAUGUAAUGAAGGCCTT against Rps10: inactive: -0.243; GGAAAUCCGAAAUGAGCUGTT against Gm1395: inactive: 0.942. Next, “GCUCUGAGUGAGUCAAAAGTT against 0610016J10Rik”: inactive: 0.847. Turning to “GGUGUUCCACCCAACUCAATT against 1810057E01Rik”, the z-score was inactive: 1.2. With “GGACAUGGCUCUAAAAUUUTT against 1110007C24Rik” the figure was inactive: 1.33; with GUUAAAAAGUGGAAUGCAGTT against Rbx1, inactive: 0.681. Next, GGAAACCGAAUUCCAAGGGTT against Ddx25: inactive: -0.217; GCAAGAAAACCUUAGCUCATT against Trpm2: inactive: -0.762. With “GGUAGUAGGAGUUUCCUACTT against 4933414I15Rik” the figure was inactive: 1.79; with GGGUCUGAUUUUUUAAGGATT against Arpp19, inactive: -0.486. In the case of CCAUUUAUUCCCUCAACAUTT against Shoc2, the z-score was inactive: 0.772. Next, GCACUUACAUUGACGAACUTT against Olfr985: inactive: -1.8. GGAAGUUACUGUGAGAUAATT against Mtbp: the z-score is inactive: -2.9. With GGCUCGUCAAAUCAAGUAUTT against Hist1h2be the figure was inactive: -1.15; with GGUUUUGCAUAAGAUCAUUTT against Nnp1, inactive: -2.69; with GGUGGAGUUUAAACUUACATT against Atp4b, inactive: 1.33. Regarding CCUACUUUAGUUCACUUUGTT against Tsnax, the z-score was inactive: -0.0579. As for CGUCCUGUCGGUAACAUUATT against Mllt2h, the z-score is inactive: 1.77.

As for CGUGCUGUUUAAAAGCCGUTT against Mkrn3, the z-score is inactive: 1.38. Next, GGCUCUCAUCCAUCUCCUUTT against Olfr715: inactive: -2.25.

For CGCUAAGCUUAUUGAGUCUTT against BC003251, the z-score is inactive: 0.488. Consider GCAGGGAGACUCACAUUAATT against Anktm1, for which the z-score is inactive: -1.29. Next, GGCCAAGAUCAUGAUCACCTT against Cldn4: inactive: 0.413; “CCUUUGGACUGUACCACCUTT against 1200003I07Rik”: inactive: -1.02; GAGACAAGGGUCGUCUAAUTT against Dusp13: inactive: -1.22. As to “GGUCAUUCAAGAGAUACUATT against 1810055E12Rik”, the z-score is inactive: -1.02. As for GGGAAGCAACAUGAUUAAATT against Myst2, the z-score is inactive: 1.25.

Regarding “GGAACUUCUGGUAAGUUUGTT against 5930412E23Rik”, the z-score is inactive: -1.7. For GCGGCUUAUGUCUCAAAUUTT against Gcdh, the z-score was inactive: -0.52. As for GGAGCGAAGUGAUGAAUAATT against Rds, the z-score is inactive: 0.434.

Take GGUAUACAAAUCAAAUGUCTT against Nufip1: the z-score was inactive: -0.724.

CCGUAUCAACCUCAUCUAUTT against Mobkl2c: the z-score is inactive: 0.723. With GGGAGUUAUAUUAGUCUAUTT against Rab18, the z-score is inactive: -2.64. With CCAUCAACCCAUCAUGUGCTT against Pitpnc1 the figure was inactive: 0.101.

Source of the values: PubChem BioAssay AID1347423 (Functional Genomics Laboratory (NCATS/FGL), 2020).
